In experiment [1] the target is OsbZIP14 (BiFC fusion from pRTVnVC-OsbZIP14) (rice (Nipponbare cDNA)) (UniProt Q0E476). Nature of the experiment: split reporter; BiFC in rice protoplasts co-transformed with pRTVnVC-OsbZIP14 and pRTVnVN-OsbZIP58; confocal microscopy after 9 h culture; controls with the corresponding empty plasmids.
In experiment [2] the target is OsbZIP14 (yeast two-hybrid bait from PGBKT7-OsbZIP14) (rice (Nipponbare cDNA)) (UniProt Q0E476). Kind of experiment: two-hybrid; pairwise Y2H of OsbZIP14 and OsbZIP58, named only in the discussion; no details given.

Sequences of proteins named here, by UniProt entry; tags and fusion partners are left off. A change or cut given only in a name is not applied to a line headed by its entry.
UniProt Q0E476: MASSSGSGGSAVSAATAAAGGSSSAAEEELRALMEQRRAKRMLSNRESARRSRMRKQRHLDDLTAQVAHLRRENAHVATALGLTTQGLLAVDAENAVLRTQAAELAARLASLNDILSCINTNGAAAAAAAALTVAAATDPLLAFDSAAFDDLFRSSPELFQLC

No constants are given. Whether binding was seen depends on the method and setting. Binding calls can cover weak binding; strength is not graded here. Where a sequence is shown, tags or fusion partners need not be part of it. For some assays here: In cells and extracts the contact can be indirect.

B1: OsbZIP58 (BiFC fusion from pRTVnVN-OsbZIP58) (protein, UniProt Q6ZLB0 1-436)
chain: MEHVFAVDEIPDPLWAPPPPVQPAAAAGVDDVGAVSGGGLLERCPSGWNLERFLEELDGVPAPAASPDGAAIYPSPMPAAAAEAAARWSRGYGDREAVGVMPMPAAALPAAPASAAMDPVEYNAMLKRKLDEDLATVAMWRASGAIHSESPLGNKTSLSIVGSILSSQKCIEGNGILVQTKLSPGPNGGSGPYVNQNTDAHAKQATSGSSREPSPSEDDDMEGDAEAMGNMILDEEDKVKKRKESNRESARRSRSRKAARLKDLEEQVSLLRVENSSLLRRLADANQKYSAAAIDNRVLMADIEALRAKVRMAEESVKMVTGARQLHQAIPDMQSPLNVNSDASVPIQNNNPMNYFSNANNAGVNSFMHQVSPAFQIVDSVEKIDPTDPVQLQQQQMASLQHLQNRACGGGASSNEYTAWGSSLMDANELVNMELQ
For the molecule B1, the binding entry in experiment [1] was “binds”.

B2: OsbZIP58 (pairwise yeast two-hybrid fusion) (protein, UniProt Q6ZLB0 1-436)
chain: B1 chain
With B2, the binding result in experiment [2] is on record as “binds”.

The record behind these values is paper PMC10057503.
